These results are taken from US12685791B2, “Free PSA antibodies as diagnostics, prognostics and therapeutics for prostate cancer” (Memorial Sloan Kettering Cancer Center, priority 2011, dated 2026).

Molecules are shown by their SMILES. Values joined by “and” are separate entries in the source; they are usually repeats but may differ in a detail not shown here. Equal values may be shown once.

The subject of the series is fPSA and tPSA. The series can be described thus: Tumor PSA ELISA, castrate male mice bearing LNCaP-AR tumors treated with vehicle or MDV3100 (Table 14). The format is in vivo, human. Conditions: individual mice, listed as MDV. The method, then: Mice were injected with ^89Zr-5A10, and at the indicated time point post injection, were sacrificed for PSA analysis. Tumor tissues were surgically excised. fPSA and total PSA (“tPSA”) were determined with PSA-directed ELISA, and the values were normalized to total protein concentration. fPSA concentrations are reported as average ng/ml(a), total PSA (“tPSA”) concentrations are reported as ng/mL (b), and total protein concentrations are reported as ng/mg (c). ELISAs were conducted as follows for PSA detection in serum and tumor tissues. fPSA and tPSA were measured with a dual-label immunofluorometric assay (DELFIA Prostatus™ PSA Free/Total PSA; Perkin-Elmer Life Sciences) according to manufacturer's recommendations. This assay measured fPSA and complexed PSA (cPSA) in an equimolar fashion^8, and the cross-reactivity of PSA-ACT for fPSA was <0.2%^9. […] For detection, the 1235 automatic immunoassay system from Perkin-Elmer Life Sciences was used. cPSA concentrations were calculated by subtracting fPSA from tPSA.
As expected, each dose of MDV3100 inhibited AR signaling and fPSA synthesis (Table 14). Table 14 provides data regarding tumor analysis of PSA expression levels via ELISA in castrate male mice bearing LNCaP-AR tumors treated with antiandrogens. Castrate male mice bearing LNCaP-AR xenografts received a daily oral gavage of vehicle (VEH #), 10 mg/kg (MDV10 #), 40 mg/kg (MDV40 #), or 80 mg/kg (MDV80 #). Six days post manipulation, mice were injected with ^89Zr-5A10. Twenty four hours post injection, mice were sacrificed for PSA analysis. Tumor tissues were surgically excised. fPSA and tPSA were determined with PSA-directed ELISA (as above), and in the case of intratumoral PSA, the values were normalized to total protein concentration. ^afPSA concentrations are reported as ng/ml, ^btotal PSA concentrations are reported as ng/mL, ^ctotal protein concentrations are reported as ng/mg. Abbreviations: fPSA, fPSA; tPSA, total PSA.
For orientation: ELISA stands for enzyme-linked immunosorbent assay.

With `CNC(=O)c1ccc(N2C(=S)N(c3ccc(C#N)c(C(F)(F)F)c3)C(=O)C2(C)C)cc1F` [MDV3100], the “Total Protein” value is 5.82 ng/mg and 6.92 ng/mg and 4.50 ng/mg and 9.20 ng/mg (10 mg/kg daily oral gavage, 10 mg/kg); 6.13 ng/mg and 7.04 ng/mg and 6.50 ng/mg (40 mg/kg daily oral gavage, 40 mg/kg); 5.05 ng/mg and 7.52 ng/mg and 5.74 ng/mg (80 mg/kg daily oral gavage, 80 mg/kg).
